The target of the assay is T1, EGFP-tagged TTC5 expressed in 293 T-REx TTC5 KO cells (human) (UniProt Q8N0Z6).
T1 sequence: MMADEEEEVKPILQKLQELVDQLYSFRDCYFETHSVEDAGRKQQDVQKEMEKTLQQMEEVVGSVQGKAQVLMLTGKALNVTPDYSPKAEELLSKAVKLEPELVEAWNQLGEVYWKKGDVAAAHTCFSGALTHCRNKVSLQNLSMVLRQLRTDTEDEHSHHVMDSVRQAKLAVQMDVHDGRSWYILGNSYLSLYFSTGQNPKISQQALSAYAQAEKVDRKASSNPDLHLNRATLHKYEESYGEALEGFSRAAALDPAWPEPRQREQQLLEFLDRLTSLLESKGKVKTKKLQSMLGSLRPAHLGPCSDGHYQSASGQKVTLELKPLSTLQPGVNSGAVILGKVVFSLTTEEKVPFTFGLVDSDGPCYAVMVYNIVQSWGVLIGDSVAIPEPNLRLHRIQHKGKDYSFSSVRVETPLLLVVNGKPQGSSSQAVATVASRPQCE
Kind of assay: affinity purification with mass spectrometry; EGFP-TTC5 from 293 T-REx TTC5 KO cells, treated with 10 μM colchicine for 0-180 min, GFP-trap agarose, label-free LC-MS/MS.

These are yes or no findings as the source states them, for the method shown. Binding seen in cells or lysates may run through a third protein. Here binding means that the protein was enriched with, or labelled near, the bait; the list need not be complete. Where a sequence is shown, tags or fusion partners need not be part of it.

B1: SCAPER (S-Phase Cyclin A Associated Protein in the ER) (protein, UniProt Q9BY12 1-1400)
chain: MMASFQRSNSHDKVRRIVAEEGRTARNLIAWSVPLESKDDDGKPKCQTGGKSKRTIQGTHKTTKQSTAVDCKITSSTTGDKHFDKSPTKTRHPRKIDLRARYWAFLFDNLRRAVDEIYVTCESDQSVVECKEVLMMLDNYVRDFKALIDWIQLQEKLEKTDAQSRPTSLAWEVKKMSPGRHVIPSPSTDRINVTSNARRSLNFGGSTGTVPAPRLAPTGVSWADKVKAHHTGSTASSEITPAQSCPPMTVQKASRKNERKDAEGWETVQRGRPIRSRSTAVMPKVSLATEATRSKDDSDKENVCLLPDESIQKGQFVGDGTSNTIESHPKDSLHSCDHPLAEKTQFTVSTLDDVKNSGSIRDNYVRTSEISAVHIDTECVSVMLQAGTPPLQVNEEKFPAEKARIENEMDPSDISNSMAEVLAKKEELADRLEKANEEAIASAIAEEEQLTREIEAEENNDINIETDNDSDFSASMGSGSVSFCGMSMDWNDVLADYEARESWRQNTSWGDIVEEEPARPPGHGIHMHEKLSSPSRKRTIAESKKKHEEKQMKAQQLREKLREEKTLKLQKLLEREKDVRKWKEELLDQRRRMMEEKLLHAEFKREVQLQAIVKKAQEEEAKVNEIAFINTLEAQNKRHDVLSKLKEYEQRLNELQEERQRRQEEKQARDEAVQERKRALEAERQARVEELLMKRKEQEARIEQQRQEKEKAREDAARERARDREERLAALTAAQQEAMEELQKKIQLKHDESIRRHMEQIEQRKEKAAELSSGRHANTDYAPKLTPYERKKQCSLCNVLISSEVYLFSHVKGRKHQQAVRENTSIQGRELSDEEVEHLSLKKYIIDIVVESTAPAEALKDGEERQKNKKKAKKIKARMNFRAKEYESLMETKNSGSDSPYKAKLQRLAKDLLKQVQVQDSGSWANNKVSALDRTLGEITRILEKENVADQIAFQAAGGLTALEHILQAVVPATNVNTVLRIPPKSLCNAINVYNLTCNNCSENCSDVLFSNKITFLMDLLIHQLTVYVPDENNTILGRNTNKQVFEGLTTGLLKVSAVVLGCLIANRPDGNCQPATPKIPTQEMKNKPSQGDPFNNRVQDLISYVVNMGLIDKLCACFLSVQGPVDENPKMAIFLQHAAGLLHAMCTLCFAVTGRSYSIFDNNRQDPTGLTAALQATDLAGVLHMLYCVLFHGTILDPSTASPKENYTQNTIQVAIQSLRFFNSFAALHLPAFQSIVGAEGLSLAFRHMASSLLGHCSQVSCESLLHEVIVCVGYFTVNHPDNQVIVQSGRHPTVLQKLCQLPFQYFSDPRLIKVLFPSLIAACYNNHQNKIILEQEMSCVLLATFIQDLAQTPGQAENQPYQPKGKCLGSQDYLELANRFPQQAWEEARQFFLKKEKK
Regarding B1, the binding result was “binds”.

(Values after paper PMC11570694.)
